The supplement of paper PMC10849652
The list shows a part of the results.

By UniProt entry, the sequences of proteins in these tests, tags left out. Where a name states a change or a piece, a line headed by the entry shows the natural chain unless it says otherwise.
UniProt Q9UJW0, whole entry, looked up: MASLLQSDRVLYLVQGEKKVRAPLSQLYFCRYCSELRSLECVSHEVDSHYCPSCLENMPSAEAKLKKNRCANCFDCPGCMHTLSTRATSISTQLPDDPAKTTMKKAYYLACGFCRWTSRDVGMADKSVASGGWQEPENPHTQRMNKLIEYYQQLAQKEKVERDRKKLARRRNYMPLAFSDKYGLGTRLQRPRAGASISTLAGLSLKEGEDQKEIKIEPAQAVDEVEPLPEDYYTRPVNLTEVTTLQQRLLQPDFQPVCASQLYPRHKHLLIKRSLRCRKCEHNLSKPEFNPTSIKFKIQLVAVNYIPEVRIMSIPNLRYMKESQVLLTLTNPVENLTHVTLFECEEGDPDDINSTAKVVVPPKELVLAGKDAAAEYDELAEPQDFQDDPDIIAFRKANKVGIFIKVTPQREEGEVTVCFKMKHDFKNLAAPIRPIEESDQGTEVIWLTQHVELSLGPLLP
UniProt Q9BTE1, whole entry, looked up: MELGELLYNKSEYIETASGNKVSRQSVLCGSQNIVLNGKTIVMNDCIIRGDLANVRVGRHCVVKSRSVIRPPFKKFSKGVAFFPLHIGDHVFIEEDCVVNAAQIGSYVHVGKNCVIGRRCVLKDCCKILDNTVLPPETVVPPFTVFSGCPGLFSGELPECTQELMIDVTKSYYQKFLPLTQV
UniProt Q9BTE7: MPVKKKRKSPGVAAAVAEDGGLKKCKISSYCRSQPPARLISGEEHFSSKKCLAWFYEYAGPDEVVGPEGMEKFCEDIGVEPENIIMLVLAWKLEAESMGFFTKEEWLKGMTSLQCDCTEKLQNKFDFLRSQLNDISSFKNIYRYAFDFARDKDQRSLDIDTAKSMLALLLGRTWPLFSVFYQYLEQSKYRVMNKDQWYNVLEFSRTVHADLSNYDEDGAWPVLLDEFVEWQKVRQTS
UniProt Q9Y4D1, whole entry, looked up: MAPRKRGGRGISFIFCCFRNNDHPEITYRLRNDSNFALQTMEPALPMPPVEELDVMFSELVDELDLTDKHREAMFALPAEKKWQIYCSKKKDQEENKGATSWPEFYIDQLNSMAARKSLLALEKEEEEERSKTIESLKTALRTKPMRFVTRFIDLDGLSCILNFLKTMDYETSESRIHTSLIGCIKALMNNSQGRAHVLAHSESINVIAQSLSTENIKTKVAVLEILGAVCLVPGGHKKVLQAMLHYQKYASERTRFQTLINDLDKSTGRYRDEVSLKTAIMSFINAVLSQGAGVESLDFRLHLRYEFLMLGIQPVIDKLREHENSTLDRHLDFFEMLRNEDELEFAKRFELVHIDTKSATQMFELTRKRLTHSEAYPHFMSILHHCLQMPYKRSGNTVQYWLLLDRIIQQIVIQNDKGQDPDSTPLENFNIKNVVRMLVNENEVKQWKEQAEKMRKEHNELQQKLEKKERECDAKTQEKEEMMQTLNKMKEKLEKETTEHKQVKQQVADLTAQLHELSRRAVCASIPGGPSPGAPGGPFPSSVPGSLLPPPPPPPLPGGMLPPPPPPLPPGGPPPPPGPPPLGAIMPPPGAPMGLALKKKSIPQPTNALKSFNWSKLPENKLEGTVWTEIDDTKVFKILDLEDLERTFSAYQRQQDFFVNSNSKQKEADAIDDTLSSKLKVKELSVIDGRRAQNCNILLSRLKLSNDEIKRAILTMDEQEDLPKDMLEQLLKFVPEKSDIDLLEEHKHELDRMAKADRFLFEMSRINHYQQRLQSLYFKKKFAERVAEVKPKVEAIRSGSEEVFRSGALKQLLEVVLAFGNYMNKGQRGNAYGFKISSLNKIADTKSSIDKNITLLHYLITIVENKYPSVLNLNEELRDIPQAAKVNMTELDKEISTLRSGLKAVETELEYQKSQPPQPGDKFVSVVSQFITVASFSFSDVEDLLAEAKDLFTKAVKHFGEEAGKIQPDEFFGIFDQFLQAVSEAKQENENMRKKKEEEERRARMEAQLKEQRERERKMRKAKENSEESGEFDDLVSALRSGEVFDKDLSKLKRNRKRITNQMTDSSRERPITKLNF
UniProt Q9UJU6: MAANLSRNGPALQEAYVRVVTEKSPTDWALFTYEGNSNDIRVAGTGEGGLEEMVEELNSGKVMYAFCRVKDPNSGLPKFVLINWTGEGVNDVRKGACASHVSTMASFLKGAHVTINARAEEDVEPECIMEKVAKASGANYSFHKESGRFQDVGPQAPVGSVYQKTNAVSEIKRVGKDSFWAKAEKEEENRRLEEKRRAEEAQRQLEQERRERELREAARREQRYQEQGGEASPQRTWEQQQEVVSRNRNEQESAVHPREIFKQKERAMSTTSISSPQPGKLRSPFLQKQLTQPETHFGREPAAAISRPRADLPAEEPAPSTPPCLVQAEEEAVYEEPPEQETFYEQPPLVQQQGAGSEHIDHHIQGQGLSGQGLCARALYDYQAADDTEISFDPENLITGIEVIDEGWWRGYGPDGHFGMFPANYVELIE
UniProt Q7L014: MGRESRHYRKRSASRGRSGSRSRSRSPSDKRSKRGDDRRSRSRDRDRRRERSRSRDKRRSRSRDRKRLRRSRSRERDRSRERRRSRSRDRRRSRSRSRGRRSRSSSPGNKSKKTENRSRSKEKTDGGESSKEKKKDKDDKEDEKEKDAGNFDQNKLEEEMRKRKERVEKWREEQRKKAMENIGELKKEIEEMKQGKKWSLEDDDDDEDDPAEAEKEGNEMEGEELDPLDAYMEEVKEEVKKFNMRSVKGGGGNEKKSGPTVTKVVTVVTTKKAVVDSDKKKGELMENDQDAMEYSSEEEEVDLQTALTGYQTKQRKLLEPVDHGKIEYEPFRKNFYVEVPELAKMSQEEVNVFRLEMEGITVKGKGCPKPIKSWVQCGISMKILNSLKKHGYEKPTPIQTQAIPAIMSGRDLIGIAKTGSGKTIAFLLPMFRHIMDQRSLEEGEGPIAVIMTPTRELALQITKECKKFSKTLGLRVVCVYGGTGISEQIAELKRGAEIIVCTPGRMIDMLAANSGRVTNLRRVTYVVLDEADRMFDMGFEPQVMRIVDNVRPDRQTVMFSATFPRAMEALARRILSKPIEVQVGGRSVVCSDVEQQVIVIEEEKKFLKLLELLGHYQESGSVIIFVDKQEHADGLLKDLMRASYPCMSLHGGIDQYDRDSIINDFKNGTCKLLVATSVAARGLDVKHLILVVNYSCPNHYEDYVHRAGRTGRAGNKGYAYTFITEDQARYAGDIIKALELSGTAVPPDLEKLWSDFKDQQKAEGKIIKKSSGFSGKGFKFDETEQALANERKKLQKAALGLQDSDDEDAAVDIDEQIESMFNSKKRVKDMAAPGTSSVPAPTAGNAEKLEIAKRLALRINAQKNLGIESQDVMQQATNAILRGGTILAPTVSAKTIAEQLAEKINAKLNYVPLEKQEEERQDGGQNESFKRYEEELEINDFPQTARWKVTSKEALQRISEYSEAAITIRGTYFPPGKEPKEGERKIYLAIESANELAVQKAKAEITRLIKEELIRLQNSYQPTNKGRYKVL
UniProt Q9UHI6: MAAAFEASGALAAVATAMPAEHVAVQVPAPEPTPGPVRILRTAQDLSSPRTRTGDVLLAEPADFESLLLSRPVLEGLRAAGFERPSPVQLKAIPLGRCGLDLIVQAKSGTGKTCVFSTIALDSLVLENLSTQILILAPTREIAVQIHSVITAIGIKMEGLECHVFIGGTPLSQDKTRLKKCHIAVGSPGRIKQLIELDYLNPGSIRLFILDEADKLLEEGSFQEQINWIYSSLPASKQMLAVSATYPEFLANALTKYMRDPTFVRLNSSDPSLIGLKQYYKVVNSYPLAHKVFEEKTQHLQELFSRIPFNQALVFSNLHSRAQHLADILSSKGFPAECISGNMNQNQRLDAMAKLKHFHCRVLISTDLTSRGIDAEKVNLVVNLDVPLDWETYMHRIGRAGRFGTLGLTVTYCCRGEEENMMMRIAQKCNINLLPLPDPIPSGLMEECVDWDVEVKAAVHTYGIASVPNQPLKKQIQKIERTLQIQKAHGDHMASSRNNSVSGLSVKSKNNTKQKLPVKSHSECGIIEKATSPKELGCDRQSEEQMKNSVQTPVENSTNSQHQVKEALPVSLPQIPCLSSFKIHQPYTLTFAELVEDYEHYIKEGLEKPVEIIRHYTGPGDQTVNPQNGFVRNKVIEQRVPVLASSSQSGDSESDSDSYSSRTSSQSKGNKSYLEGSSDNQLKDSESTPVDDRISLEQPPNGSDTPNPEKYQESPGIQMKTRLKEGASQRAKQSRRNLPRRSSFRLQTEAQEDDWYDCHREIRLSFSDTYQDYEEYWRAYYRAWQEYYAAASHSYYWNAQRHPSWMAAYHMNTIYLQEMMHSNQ
UniProt Q8IWF6: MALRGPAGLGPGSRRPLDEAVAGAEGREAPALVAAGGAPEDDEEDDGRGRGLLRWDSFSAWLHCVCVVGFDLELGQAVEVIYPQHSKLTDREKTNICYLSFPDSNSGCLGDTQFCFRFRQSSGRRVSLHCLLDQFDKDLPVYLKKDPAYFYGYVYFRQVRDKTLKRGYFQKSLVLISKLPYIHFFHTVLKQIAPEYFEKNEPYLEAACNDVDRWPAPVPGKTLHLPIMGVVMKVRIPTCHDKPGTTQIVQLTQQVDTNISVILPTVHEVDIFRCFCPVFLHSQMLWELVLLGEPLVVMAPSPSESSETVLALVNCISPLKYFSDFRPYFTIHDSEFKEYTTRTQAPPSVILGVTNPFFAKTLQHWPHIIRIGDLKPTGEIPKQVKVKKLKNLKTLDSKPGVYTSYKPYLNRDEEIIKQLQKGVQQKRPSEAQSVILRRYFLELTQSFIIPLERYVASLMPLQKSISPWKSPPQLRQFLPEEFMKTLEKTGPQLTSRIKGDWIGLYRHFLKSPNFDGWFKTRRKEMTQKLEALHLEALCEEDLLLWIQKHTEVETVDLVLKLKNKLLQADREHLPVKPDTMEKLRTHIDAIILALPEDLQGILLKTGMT
UniProt O15121: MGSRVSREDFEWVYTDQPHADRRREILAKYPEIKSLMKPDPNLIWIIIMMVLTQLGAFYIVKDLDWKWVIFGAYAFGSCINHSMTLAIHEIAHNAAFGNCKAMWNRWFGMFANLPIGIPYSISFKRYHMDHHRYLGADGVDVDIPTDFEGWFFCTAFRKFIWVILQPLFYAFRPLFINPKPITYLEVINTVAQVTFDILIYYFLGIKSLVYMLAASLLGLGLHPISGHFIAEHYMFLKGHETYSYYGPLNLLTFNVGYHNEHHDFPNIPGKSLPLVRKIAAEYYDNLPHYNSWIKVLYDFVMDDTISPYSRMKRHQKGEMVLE
UniProt P51397: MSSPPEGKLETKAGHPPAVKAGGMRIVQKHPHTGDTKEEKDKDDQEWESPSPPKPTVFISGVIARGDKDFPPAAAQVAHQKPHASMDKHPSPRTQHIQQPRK
UniProt P14868: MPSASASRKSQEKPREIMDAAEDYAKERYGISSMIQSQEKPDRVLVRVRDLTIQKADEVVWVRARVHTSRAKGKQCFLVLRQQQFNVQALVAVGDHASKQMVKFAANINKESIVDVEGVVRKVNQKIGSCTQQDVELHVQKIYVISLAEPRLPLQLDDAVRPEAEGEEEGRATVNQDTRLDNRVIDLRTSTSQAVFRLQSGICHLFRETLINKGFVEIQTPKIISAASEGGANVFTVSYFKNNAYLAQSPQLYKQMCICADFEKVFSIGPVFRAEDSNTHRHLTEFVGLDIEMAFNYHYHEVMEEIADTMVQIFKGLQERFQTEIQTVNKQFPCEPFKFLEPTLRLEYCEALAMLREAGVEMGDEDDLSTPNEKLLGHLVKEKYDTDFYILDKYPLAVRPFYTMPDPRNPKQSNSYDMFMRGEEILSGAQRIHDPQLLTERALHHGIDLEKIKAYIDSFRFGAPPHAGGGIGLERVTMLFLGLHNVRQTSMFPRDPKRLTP
UniProt Q9NQI0, whole entry, looked up: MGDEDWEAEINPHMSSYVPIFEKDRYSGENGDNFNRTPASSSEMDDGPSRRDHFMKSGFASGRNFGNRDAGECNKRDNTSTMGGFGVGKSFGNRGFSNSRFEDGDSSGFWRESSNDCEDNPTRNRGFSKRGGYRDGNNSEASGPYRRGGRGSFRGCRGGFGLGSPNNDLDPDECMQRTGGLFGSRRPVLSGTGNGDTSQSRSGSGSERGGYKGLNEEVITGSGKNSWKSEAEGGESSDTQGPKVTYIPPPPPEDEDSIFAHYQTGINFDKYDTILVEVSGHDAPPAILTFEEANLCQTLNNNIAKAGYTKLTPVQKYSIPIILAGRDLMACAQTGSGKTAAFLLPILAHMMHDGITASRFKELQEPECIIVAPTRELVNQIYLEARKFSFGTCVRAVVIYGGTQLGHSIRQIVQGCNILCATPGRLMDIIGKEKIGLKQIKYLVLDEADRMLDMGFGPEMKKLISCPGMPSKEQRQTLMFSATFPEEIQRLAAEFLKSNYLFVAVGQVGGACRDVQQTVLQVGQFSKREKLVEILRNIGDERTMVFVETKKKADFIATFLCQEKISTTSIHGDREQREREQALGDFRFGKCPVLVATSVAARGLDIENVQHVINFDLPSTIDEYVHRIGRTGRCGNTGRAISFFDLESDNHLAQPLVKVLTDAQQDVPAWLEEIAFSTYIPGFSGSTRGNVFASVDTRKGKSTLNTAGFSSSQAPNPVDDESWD

What was measured:
Experiment in all cases: log2 fold change, soluble protein after heating vs DMSO (PISA); higher = thermal stabilisation; K562 lysate, 10 uM; active = over 0.2 and 3.5 SD of the protein, either way, in both replicates (recomputed)
erlotinib = compound: C#Cc1cccc(Nc2ncnc3cc(OCCOC)c(OCCOC)cc23)c1 [erlotinib]
Procedure, shortened: (§1)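 Quantification was by TMTpro 16plex LC-MS/MS with equalised channel sums, applied to the supernatant after 21,000xg for 90 min. Samples were crude K562 extract at 1 mg/mL protein in PBS pH 7.4 with 1 mM MgCl2, treated with 10 μM compound for 30 min, heated for 3 min across 48°C-58°C, pooled and brought to 0.5% NP-40 at 4°C. Values are log-two fold changes in thermal stability relative to solvent controls, from duplicates.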

[1] = compound: C/C(=N\NC(=O)C1=CC(=CC=C1)S(=O)(=O)N2CCOCC2)/C3=C(C=CC(=C3)Cl)O
Procedure, shortened: as §1

[2] = compound: C1=CC(=CC=C1C2=NC3=C(N2)C=C(C=C3)C(=O)N)OC4=CC=C(C=C4)Cl
Procedure, shortened: as §1

[3] = compound: C1=CC2=C(C=CC(=C2)/C=C\3/C(=O)NC(=NCC4=CC=CS4)S3)N=C1
Procedure, shortened: as §1

[4] = compound: C1=CC2=NC=CN=C2C=C1/C=C/3\C(=O)NC(=O)S3
Procedure, shortened: as §1

[5] = compound: C1=CC=C(C=C1)C2=NC(=C(N2)C3=CC=NC=C3)C4=CC(=C(C=C4)Cl)O
Procedure, shortened: as §1

[6] = compound: C1=CC=C2C(=C1)C3=NNC4=CC=CC(=C43)C2=O
Procedure, shortened: as §1

[7] = compound: C1CCN(C1)C(=O)NC2=CC=CC(=C2)NC3=NC=C(C(=N3)NCCC4=CN=CN4)Br
Procedure, shortened: as §1

[8] = compound: C1CN(CCC1(CC2=CC=C(C=C2)Cl)N)C3=NC=NC4=C3C=CN4
Procedure, shortened: as §1

IRAK-1-4 Inhibitor I = compound: C1COCCN1CCN2C3=CC=CC=C3N=C2NC(=O)C4=CC(=CC=C4)[N+](=O)[O-] [IRAK-1-4 Inhibitor I]
Procedure, shortened: as §1

Measured: log2 fold change

DCTN4 (UniProt Q9UJW0)
inactive: erlotinib -0.009 | [1] -0.246 | [2] 0.017 | [3] 0.011 | [4] 0.003 | [5] -0.003 | [6] 0.027 | [7] -0.026 | [8] 0.013 | IRAK-1-4 Inhibitor I -0.015

DCTN5 (UniProt Q9BTE1)
inactive: erlotinib -0.013 | [1] 0.205 | [2] 0.035 | [3] 0.027 | [4] -0.045 | [5] 0.041 | [6] -0.046 | [7] 0.029 | [8] -0.142 | IRAK-1-4 Inhibitor I -0.011

DCUN1D5 (UniProt Q9BTE7)
inactive: erlotinib 0.043 | [1] -0.03 | [2] -0.017 | [3] -0.002 | [4] 0.097 | [5] -0.013 | [6] 0.007 | [7] 0.003 | [8] 0.092 | IRAK-1-4 Inhibitor I -0.013

DAAM1 (UniProt Q9Y4D1)
inactive: erlotinib -0.071 | [1] 0.092 | [2] 0.175 | [3] -0.145 | [4] -0.065 | [6] -0.119

DBNL isoform 3 (UniProt Q9UJU6)
inactive: erlotinib -0.016 | [1] 0.055 | [2] 0.036 | [3] -0.018 | [4] 0.029 | [5] 0.018 | [6] -0.01 | [7] 0.018 | [8] -0.006 | IRAK-1-4 Inhibitor I 0.003

DDX46 (UniProt Q7L014)
inactive: erlotinib 0.019 | [1] -0.009 | [2] 0.019 | [3] 0.021 | [4] -0.004 | [5] 0.006 | [6] -0.05 | [7] -0.033 | [8] 0.004 | IRAK-1-4 Inhibitor I -0.022

DDX20 (UniProt Q9UHI6)
inactive: erlotinib 0.021 | [1] 0.048 | [2] -0.054 | [3] -0.029 | [4] -0.005 | [5] 0.007 | [6] 0.022 | [7] 0.032 | [8] 0.042 | IRAK-1-4 Inhibitor I -0.015

CYP2R1 (UniProt Q6VVX0)
inactive: erlotinib -0.047 | [1] -0.122 | [2] -0.08 | [3] 0.019 | [5] -0.013 | [6] 0.027 | [7] 0.035 | [8] -0.026 | IRAK-1-4 Inhibitor I 0.03

DENND6A (UniProt Q8IWF6)
inactive: erlotinib -0.019 | [1] 0.232 | [2] 0.004 | [3] 0.073 | [4] 0.048 | [5] 0.024 | [6] 0.003 | [7] 0.029 | [8] 0.083 | IRAK-1-4 Inhibitor I 0.025

DEGS1 (UniProt O15121)
inactive: erlotinib -0.096 | [1] -0.133 | [2] 0.011 | [3] 0.088 | [4] -0.107 | [5] 0.079 | [6] -0.023 | [7] 0.143 | [8] 0.033 | IRAK-1-4 Inhibitor I 0.073

DDA1 (UniProt Q9BW61)
inactive: erlotinib -0.004 | [1] -0.001 | [2] 0.036 | [3] -0.03 | [4] 0.008 | [5] -0.093 | [6] 0.016 | [7] -0.017 | [8] -0.01 | IRAK-1-4 Inhibitor I 0.012

DAP (UniProt P51397)
inactive: erlotinib 0.005 | [1] -0.001 | [2] 0.015 | [3] 0.046 | [4] 0.051 | [5] 0.003 | [6] -0.02 | [7] -0.005 | [8] 0.053 | IRAK-1-4 Inhibitor I 0.02

Quoted from the listing (2 entries):
DDA1 (UniProt Q9BW61)
inactive: erlotinib -0.004 | [1] -0.001 | [2] 0.036 | [3] -0.03 | [4] 0.008 | [5] -0.093 | [6] 0.016 | [7] -0.017 | [8] -0.01 | IRAK-1-4 Inhibitor I 0.012

DAP (UniProt P51397)
inactive: erlotinib 0.005 | [1] -0.001 | [2] 0.015 | [3] 0.046 | [4] 0.051 | [5] 0.003 | [6] -0.02 | [7] -0.005 | [8] 0.053 | IRAK-1-4 Inhibitor I 0.02

Remaining list, next part:

DARS (UniProt P14868)
inactive: erlotinib 0.006 | [1] 0.037 | [2] -0.039 | [3] 0.027 | [4] 0.019 | [5] -0.004 | [6] -0.04 | [7] -0.012 | [8] -0.024 | IRAK-1-4 Inhibitor I -0.041

DDX4 (UniProt Q9NQI0)
inactive: erlotinib -0.043 | [1] 0.165 | [2] -0.112 | [3] -0.028 | [4] -0.055 | [5] 0.114 | [6] -0.004 | [7] 0.002 | [8] 0.011 | IRAK-1-4 Inhibitor I -0.109
